The target in the assay is T1, p53 binding domain of Retinoblastoma binding protein 6 (RBBP6), polyhistidine-tagged (human) (UniProt Q7Z6E9).
T1 sequence: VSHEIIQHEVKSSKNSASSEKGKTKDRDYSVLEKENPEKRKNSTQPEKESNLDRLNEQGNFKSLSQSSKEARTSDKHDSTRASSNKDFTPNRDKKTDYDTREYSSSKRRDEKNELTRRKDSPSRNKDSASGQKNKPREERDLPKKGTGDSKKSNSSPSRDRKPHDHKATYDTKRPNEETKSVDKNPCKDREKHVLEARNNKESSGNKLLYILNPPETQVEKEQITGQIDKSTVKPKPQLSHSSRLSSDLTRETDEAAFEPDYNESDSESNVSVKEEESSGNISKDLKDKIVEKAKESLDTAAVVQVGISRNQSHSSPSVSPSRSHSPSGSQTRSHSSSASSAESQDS
The assay can be described thus: co-IP; purified recombinant RBBP6-p53BD added to HEK293T cell lysate, 3 h at 4°C; anti-polyhistidine antibody, protein A agarose; beads washed 5 times with PBS; Western blot with anti-p53; only the target purified. For orientation: Immunoblotting shows a protein as a band on a membrane.

Results are given in words; binding and its absence hold for the method and conditions named. Binding seen in cells or lysates may run through a third protein. Some results given as binding are weak or reduced against the parent protein; the word gives no strength. Where a sequence is shown, tags or fusion partners need not be part of it.

As to “endogenous p53 (from UniProt P04637 1-393)”, the binding entry is “binds”.

For the origin of these results see article PMC9916574.
